In this test the target is T1, Smad3 fused with the C-terminal part of Yellow Fluorescent protein (YFP) (UniProt P84022 1-425).
T1 construct: BiFC construct; not shown: C-terminal part of YFP
In words: Bimolecular Fluorescence Complementation in cells. On the procedure: Next, to test the interaction between HEYL and Smad3 in vivo, Bimolecular Fluorescence Complementation analysis was performed. In this assay, N- and C-terminal parts of Yellow Flourescent protein (YFP), were separately fused with HEYL and Smad3, respectively. If HEYL bound to Smad3 in vivo, the N- and C-terminal parts of YFP will come close in close proximity and as a result emit fluorescence. If no interaction takes place between the two molecules, no fluorescence will be emitted.

By UniProt entry, the sequences of proteins in these tests, tags left out.
UniProt P84022, whole entry: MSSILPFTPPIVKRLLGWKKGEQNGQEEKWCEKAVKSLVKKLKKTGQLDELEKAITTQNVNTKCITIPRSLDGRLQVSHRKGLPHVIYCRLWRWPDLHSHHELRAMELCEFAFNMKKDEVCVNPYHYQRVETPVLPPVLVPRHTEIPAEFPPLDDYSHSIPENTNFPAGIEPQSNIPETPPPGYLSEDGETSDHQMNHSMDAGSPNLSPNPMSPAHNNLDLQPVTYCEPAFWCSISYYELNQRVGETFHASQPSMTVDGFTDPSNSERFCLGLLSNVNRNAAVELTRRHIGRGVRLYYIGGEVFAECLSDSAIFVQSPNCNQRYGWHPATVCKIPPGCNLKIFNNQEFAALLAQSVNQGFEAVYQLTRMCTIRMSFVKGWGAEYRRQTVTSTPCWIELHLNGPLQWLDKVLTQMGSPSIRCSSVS

B1: HoxB7 (other, UniProt P09629 1-217, looked up)
chain: MSSLYYANTLFSKYPASSSVFATGAFPEQTSCAFASNPQRPGYGAGSGASFAASMQGLYPGGGGMAGQSAAGVYAAGYGLEPSSFNMHCAPFEQNLSGVCPGDSAKAAGAKEQRDSDLAAESNFRIYPWMRSSGTDRKRGRQTYTRYQTLELEKEFHYNRYLTRRRRIEIAHTLCLTERQIKIWFQNRRMKWKKENKTAGPGTTGQDRAEAEEEEEE
As to B1, the binding result is reported as “no binding”.

The record behind these values is patent publication US9540694 (Johns Hopkins, dated 2017).
